{"source": "patent US20190321420A1", "about": "“METHOD AND COMPOSITION FOR PREVENTING, TREATING OR RELIEVING BONE DISEASES” (GRAPE KING BIO Ltd., priority 2018, published 2019)", "system": "ovariectomized ICR female mice", "assay": "Micro-CT bone tissue analysis of the right distal femur in ovariectomized mice (osteoporosis model)", "type": "in vivo", "conditions": "32nd day after ovariectomy, GKM3/GKS6 205 mg/kg oral gavage once/day for 28 days, Alen 2.5 mg/kg 3 times a week for 28 days, n = 6", "protocol": "In this embodiment, GKM3 and GKS6 powders were each prepared in a 0.5% (w/v) carboxymethylcellulose (CMC) solution as a suspension with a concentration of 205 mg/mL The vehicle group used 0.5% (w/v) CMC solution. For the positive control group, the anti-osteoporosis drug, alendronate (Alen), was prepared as a 0.25 mg/mL suspension in 0.5% (w/v) CMC solution. Mice were tube-fed 0.1 mL of GKM3 suspension, GKS6 suspension, 0.5% (w/v) CMC solution or Alen suspension per 10 g of body weight.\nBecause bone metabolism is closely related to estrogen, mice with bilateral ovariectomy were used as a model for studying osteoporosis in postmenopausal animals. […]\nComputerized tomography images of the right distal femur of ICR mice were obtained by a micro-computed tomography (micro-CT) scanner (SkyScan 1076, Kontizh, Belgium) with a resolution of 18 μm and were analyzed by a software to obtain the trabecular bone volume density (i.e., bone volume/tissue volume, BV/TV), the trabecular thickness (Tb.Th), the trabecular number (Tb.N), and the trabecular spacing (Tb.Sp). The analyzed position was selected to include the area of 100 pieces under the growth plate but not the cortical bone. […]\nThe obtained data in the experiments were analyzed with one-way analysis of variance (one-way ANOVA) and the Duncan's multiple range test. […]", "note": "Marks after values point to notes of the source that are not given here.", "data": [{"smiles": "NCCCC(O)(P(=O)(O)O)P(=O)(O)O", "note": "[Alen, alendronate]", "values": [{"measurement": "Trabecular bone volume density (BV/TV)", "value": "34.9 ± 2.0* %"}]}]}
